These are yes or no findings as the source states them, for the method shown. In cells and extracts the contact can be indirect. Here binding means that the protein was enriched with, or labelled near, the bait; the list need not be complete.
B1: RNF169 (protein, UniProt E9Q7F2 1-694)
chain: MAAAGPSTRASSAAAAAALSRRGRRGRCDEMAAAKAGAPGPASSPALLVLRSAPRPEESGCTGCLETPGEVAALPCSHSRCRGCASRAAGPGCRRCRPRGSGWARRRARDDGQAAAELMGERARRGQPEPCRPRRDGGAAASGPRPEPEPLAEPEFIFRTPIKLSKPGELSEEYGCLRKLRGEKLQEEKDCDDQIHKLLQEDSEMGKRKADEQKKRDEAVVLKTSLEQCPARLSDSENEEPSRGQMMQTHRSAFVSKNSSCSLAFLAGKLNTKVQRSQSCSDTVQDRVRSRLRTAPPNRAKITTITPGSTPIIGVLLSTQNNRCLSAPDLTIEKRLPFGSLSSLASLHKPERSISPESNDSISEELNHFKPIVCSPCTPPKRLPDGRVLSPLIIKSTPRNLTRSLQKQTSYEASPRILKKWEQIFQERQIKKTLSKATLTSLAPEAGEEFPGSDTIHSSKERPSLAFNTRLSRVQVLSECAGPTSTALECFPSVNQTKVEQDCVRKRSREFSLETCHSSEHGGASSGPSLEREQCEESGSTVDATLVKTCISTVMKTAAVNSLLPKNDVLGGVLKTKQQLKTLNHFDLGNGILVNSLGEEPIPSLRRGRKRRCKTKHLEQNGVKKLRPPSSDMDLAPKDPGLLEVGRKLQQEEEDQQLALQSHRMFDSERRTMSRRKGSVDQYLLRSSSLAGAK
B2: MARCH7 (protein, UniProt Q9WV66 1-693)
chain: MESKPSRIPRRISVQPSGSLSTRMVSGNRGTSLNDSYHSRDSSFRLDSEYQSASASACASPCQPAWYSESEIPQGARARAQTQQRDHDSKRPKLSCTNCASTSAGRNGGSGLNTVSDSSWRHSQVPRSSSMVLGSFGTDLMRERRDLDRRRESSISNLMDYNHRSGDFTTSSYVQERVPSSYSQGARPKENAVSTLQLNSSSTNHQLPSDHQTVPSSRDSSRSSFRSHFSPRQSESFRNSSHPAFSYFSSRNETPTISNSERGSSQRPYRESSDNEGRRTTRRLLSRIASSMSSTFFSRRSSQDSLNTRSLSSENYISPRTLTSQSRNNGTSSSSDVSEGRAAEASQGFRFLRRRWGLSSLSQNHSSEPEAENFNQESEGRNSGPWLSSSLRNRCTPLFSRRRREGRDESSRMSTSDVPPRSHIFRRDSNEVVHLEAQGDSLGAAANRPQASGASSSAAAGGSTPELPQGGRNPGLTGILPGSLFRFAVPPALGSNLADNVMITVDIIPSGWNSTDGKNDKAKSAPSRDPEKLQKIKESLLLEDSDDEEEGDLCRICQMAAASSSNLLIEPCKCTGSLQYVHQECMKKWLQAKINSGSSLEAVTTCELCKEKLQLNLEDFDIHELHRAHANEQAEYEFISSGLYLVVLLHLCEQSFSDMMGNTIEPSTRVRFINLARTLQAHMEDLETSEDEF
B3: KDM2B (protein, UniProt Q6P1G2 1-1309)
chain: MEAEKDSGRRLRAIDRQRYDENEDLSDVEEIVSVRGFSLEEKLRSQLYQGDFVHAMEGKDFNYEYVQREALRVPLVFRDKDGLGIKMPDPDFTVRDVKLLVGSRRLVDVMDVNTQKGTEMSMSQFVRYYETPEAQRDKLYNVISLEFSHTKLEHLVKRPTVVDLVDWVDNMWPQHLKEKQTEATNALAEMKYPKVKKYCLMSVKGCFTDFHIDFGGTSVWYHVFRGGKIFWLIPPTLHNLALYEEWVLSGKQSDIFLGDRVERCQRIELKQGYTFFIPSGWIHAVYTPVDSLVFGGNILHSFNVPMQLRIYEIEDRTRVQPKFRYPFYYEMCWYVLERYVYCVTQRSYLTQEYQRELMLIDAPRKTSVDGFSSDSWLDMEEESCEQQPQEEEEEEEDKEEEGDGADKTPKPPTDDPTSPTSTPPEDQDSTGKKPKAPAIRFLKRTLSNESEESVKSTSMPTDDPKTPTGSPATEVSTKWTHLTEFELKGLKALVEKLESLPENKKCVPEGIEDPQALLEGVKNVLKEHVDDDPTLAITGVPVVSWPKKTAKNRVVGRPKGKLGPASAVKLAANRTTAGARRRRTRCRKCEACLRTECGECHFCKDMKKFGGPGRMKQSCIMRQCIAPVLPHTAVCLVCGEAGKEDTVEEEEGKFNLMLMECSICNEIIHPGCLKIKESEGVVNDELPNCWECPKCNHAGKTGKQKRGPGFKYASNLPGSLLKEQKMNRDNKEGQEPAKRRSECEEAPRRRSDEHPKKVPADGILRRKSDDVHLRRKRKYEKPQELSGRKRASSLQTSPGSSSHLSPRPPLGSSLSPWWRSSLTYFQQQLKPGKEDKLFRKKRRSWKNAEDRLSLANKPLRRFKQEPEDDLPEAPPKTRESDQSRSSSPTAGPSTEGAEGPEEKKKVKMRRKRRLVNKELSKELSKELNHEIQKTESTLAHESQQPIKSEPESENDEPKRPLSHCERPHRFSKGLNGTPRELRHSLGPGLRSPPRVMSRPPPSASPPKCIQMERHVIRPPPISPPPDSLPLDDGAAHVMHREVWMAVFSYLSHRDLCVCMRVCRTWNRWCCDKRLWTRIDLNRCKSITPLMLSGIIRRQPVSLDLSWTNISKKQLSWLINRLPGLRDLVLSGCSWIAVSALCSSSCPLLRTLDVQWVEGLKDAQMRDLLSPPTDNRPGQMDNRSKLRNIVELRLAGLDITDVSLRLIIRHMPLLSKLQLSYCNHINDQSINLLTAVGTTTRDSLTEVNLSDCNKVTDLCLSFFKRCGNICHIDLRYCKQVTKEGCEQFIAEMSVSVQFGQVEEKLLQKLS

Sequences of proteins named here, by UniProt entry; tags and fusion partners are left off.
UniProt Q6A4J8: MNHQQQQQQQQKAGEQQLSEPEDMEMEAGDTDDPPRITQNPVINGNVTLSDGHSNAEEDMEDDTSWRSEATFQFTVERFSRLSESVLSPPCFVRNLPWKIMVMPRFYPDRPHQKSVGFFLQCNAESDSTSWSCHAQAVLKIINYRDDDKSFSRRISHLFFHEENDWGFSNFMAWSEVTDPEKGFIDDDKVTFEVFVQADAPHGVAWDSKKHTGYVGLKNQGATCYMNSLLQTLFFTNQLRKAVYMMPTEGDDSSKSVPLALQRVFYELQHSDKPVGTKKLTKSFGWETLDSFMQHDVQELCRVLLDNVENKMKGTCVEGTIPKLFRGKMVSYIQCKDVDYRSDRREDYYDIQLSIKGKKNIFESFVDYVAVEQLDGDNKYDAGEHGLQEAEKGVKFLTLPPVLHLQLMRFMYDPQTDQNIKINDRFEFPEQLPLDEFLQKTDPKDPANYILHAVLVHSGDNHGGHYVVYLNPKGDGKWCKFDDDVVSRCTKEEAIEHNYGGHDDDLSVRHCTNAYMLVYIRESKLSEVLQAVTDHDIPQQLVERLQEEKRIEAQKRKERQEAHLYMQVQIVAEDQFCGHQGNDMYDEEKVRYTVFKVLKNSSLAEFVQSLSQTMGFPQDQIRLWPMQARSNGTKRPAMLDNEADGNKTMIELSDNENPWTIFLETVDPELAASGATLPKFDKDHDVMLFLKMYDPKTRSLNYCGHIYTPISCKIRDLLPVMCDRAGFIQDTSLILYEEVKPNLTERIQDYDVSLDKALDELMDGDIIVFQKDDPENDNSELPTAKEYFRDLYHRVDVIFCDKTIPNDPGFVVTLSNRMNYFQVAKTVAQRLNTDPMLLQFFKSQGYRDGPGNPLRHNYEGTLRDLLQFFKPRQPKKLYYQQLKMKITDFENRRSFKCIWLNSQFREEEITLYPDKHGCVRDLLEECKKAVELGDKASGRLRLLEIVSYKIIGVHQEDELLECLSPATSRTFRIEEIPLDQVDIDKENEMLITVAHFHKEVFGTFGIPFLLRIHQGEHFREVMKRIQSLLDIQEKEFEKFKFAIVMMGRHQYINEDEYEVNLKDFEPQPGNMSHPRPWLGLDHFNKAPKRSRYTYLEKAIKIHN

These binders were tested against USP7 (mouse (endogenous in E14TG2a ES cells)) (UniProt Q6A4J8) (assay: affinity purification with mass spectrometry; anti-USP7 immunoprecipitation of endogenous USP7 from WT mESC lysate, Usp7-KO ES cells as control, three independent experiments; nanoLC-MS/MS, spectral counts; enriched: fold change >4 and adjusted P <0.05).

| Binder | binding |
| --- | --- |
| B1 | binds |
| B2 | binds |
| B3 | binds |

Source: PMC10123117
